Numbering of substitutions follows the chain as printed. Results are given in words; binding and its absence hold for the method and conditions named. Some entries that bind do so weakly or less than the wild type.

Sequences of proteins named here, by UniProt entry; tags and fusion partners are left off. A change or cut given only in a name is not applied to a line headed by its entry.
UniProt Q08722: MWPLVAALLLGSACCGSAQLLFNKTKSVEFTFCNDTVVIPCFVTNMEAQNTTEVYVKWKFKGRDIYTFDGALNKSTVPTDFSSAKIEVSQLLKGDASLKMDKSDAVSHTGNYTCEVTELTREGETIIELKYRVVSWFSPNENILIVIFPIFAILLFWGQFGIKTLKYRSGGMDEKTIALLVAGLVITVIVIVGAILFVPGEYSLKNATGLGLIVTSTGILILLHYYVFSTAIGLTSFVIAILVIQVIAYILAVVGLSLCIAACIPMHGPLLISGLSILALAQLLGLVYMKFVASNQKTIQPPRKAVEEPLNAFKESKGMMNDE

The target in test [1] is CD47 on monkey RBC (Macaca fascicularis). The test can be described thus: flow cytometry on cynomolgus monkey red blood cells, MFI.
Test [2] deals with CD47 protein (construct not stated; SPR antigen, CD47 coated ELISA plates) (Homo sapiens (Human)) (UniProt Q08722). The test can be described thus: EC50 as grade, ELISA on CD47 coated plates; legend +: <0.06 µg/mL.
Test [3] shares this target. Nature of the test: ELISA, CD47 coated plates, OD at 450.

B1: ABU1 (antibody, V domains shown)
VH: EVKLVESGGGLVQPGGSRKLSCAASGFTFSDYGMAWVRQAPGKGPECVAFISNLAKRIYYVDTVTGRFTISRENAKNTLYLEMSSLRSEDTAMYYCTRAYRYALDYWGQGTTLTVSS
VL: QIVLTQSPAIMSASPGEKVTMTCSASSSVSYMNWYQQKSGTSPKRWIYDTSKLASGVPARFSGSGSGTSYSLTISSMEAEDAATYYCQQWNSNPPTFGTGTKLELK
Take B1: the binding entry in test [1] is listed as “binds”.

B2: H-ABU 31 (antibody, V domains shown)
VH: QVQLVQSGAEVKKPGASVKVSCKTSGYSFTNYWMQWVRQAPGQGLEWIGMIDPSDSESRLNQKFKDRATLTVDTSTSTAYMELSSLRSEDTAVYYCARRGSPMITSFAYWGQGTLVTVSS
VL: DVQITQSPSSLSASVGDRVTITCRASKNIGKYLAWFQQKPGKTNKLLIYSGSTLQSGIPSRFSGSGSGTDFTLTISSLQPEDFATYYCQQHNEYPYTFGGGTKVEIK
Take B2: the binding result in test [2] and in test [3] was “binds” each time.

B3: H-ABU 36 (antibody, V domains shown)
VL: B2 VL
VH: B2 VH with V5Q, R67K, T74K
As to B3, the binding entry in test [2] and in test [3] was “binds” throughout.

B4: H-ABU 34 (antibody, V domains shown)
VH: B2 VH with V5Q, R67K, T74K
VL: B2 VL with V2I, I4M, T43A, N44P, L46S
Turning to B4, the binding entry in test [2] and in test [3] was “binds” each time.

B5: H-ABU 33 (antibody, V domains shown)
VH: B2 VH with V5Q, R67K, T74K
VL: B2 VL with T43A, N44P, L46S, I58V
Consider B5, for which the binding result in test [2] and in test [3] was “binds” throughout.

B6: H-ABU 35 (antibody, V domains shown)
VH: B2 VH with V5Q, R67K, T74K
VL: B2 VL with T43A, N44P, L46S
Consider B6, for which the binding entry in test [2] and in test [3] was “binds” throughout.

B7: H-ABU 32 (antibody, V domains shown)
VH: B2 VH with V5Q, R67K, T74K
VL: B2 VL with V2I, I4M, T43A, N44P, L46S, I58V
In the case of B7, the binding result in test [2] and in test [3] was “binds” throughout.

B8: ABU3 (antibody, V domains shown)
VH: EVQLQQSGAELVKPGASVKLSCTASGFTIKDTYMHWVKQRPEQGLEWIGRIDPAKDNTKYDPKFQGKATITLDTSSNIAYLQLSSLTSEDTAVYFCARGHYGSSYVVYWGQGTLVTVSA
VL: NILMTQSPKSMSMSVGERVTLSCKASENVGTYVSWYQQKPDQSPKLLIYGASNRYTGVPDRFTGSGSATDFTLTISSVQAEDLADYHCGQSYSYPLTFGAGTKLELK
With B8, the binding result in test [1] is on record as “binds”.

B9: ABU2 (antibody, V domains shown)
VH: QVQLQQPGAELVRPGASVKLSCKASGYTFTNYWMNWFKQRPEQGLEWIGRIDPYDSETLYNQKFKDKAILTVDKSSSTAYMQLSSLTSEDSAVYYCAGGGKGGFGYWGQGTLVTVSA
VL: DVLMTQTPLSLPVSLGDQASISCRSSQSIVYSNGNTYLEWYLQKPGQSPKLLIYKVSNRFSGVPDRFSGSGSGTDFTLKISRVEAEDLGVYYCFQGSHVPYTFGGGTKLEIK
Take B9: the binding entry in test [1] is “binds”.

B10: Positive 1 (commercial anti-CD47 blocking antibody, eBioscience Cat#14-0479) (antibody, V domains shown)
VH: EVQLVESGGDLVKPGGSLKLSCAASGFTFSGYGMSWVRQTPDKRLEWVATITSGGTYTYYPDSVKGRFTISRDNAKNTLYLQIDSLKSEDTAIYFCARSLAGNAMDYWGQGTSVTVSS
VL: DIVMTQSPATLSVTPGDRVSLSCRASQTISDYLHWYQQKSHESPRLLIKFASQSISGIPSRFSGSGSGSDFTLSINSVEPEDVGVYYCQNGHGFPRTFGGGTKLEIK
Regarding B10, the binding entry in test [1] is on record as “binds”.

These data come from patent US20200247886A1.
